This note sets out measurements from PMC4019584.

For at least one entry, the source does not settle the construct or the ends of the probe. At least one result comes from cells or an extract, where the contact may be indirect. For some of these results: A weaker result is weaker than the reference pair of the same experiment. For some of these results: Where a protein sequence is shown, tags need not be part of it.

For data set [1], the system named is NF-κB p50 + NF-κB p65. The data set is described as follows: EMSA. The settings on record: p50/p65 heterodimer, extract from AGS infected with H. pylori in presence of IL-22; 20 mM HEPES pH 7.9, 1 mM DTT, 2.5 mM MgCl2, 50 mM KCl, 2 µg poly dI:dC, 10 µg nuclear extract in 10 µl, room temperature 30 min; protein in an extract; label: 32P 5' end label.
Data set [2] deals with T1, NF-κB p50 (UniProt P19838).
T1 sequence (looked up, limits assumed): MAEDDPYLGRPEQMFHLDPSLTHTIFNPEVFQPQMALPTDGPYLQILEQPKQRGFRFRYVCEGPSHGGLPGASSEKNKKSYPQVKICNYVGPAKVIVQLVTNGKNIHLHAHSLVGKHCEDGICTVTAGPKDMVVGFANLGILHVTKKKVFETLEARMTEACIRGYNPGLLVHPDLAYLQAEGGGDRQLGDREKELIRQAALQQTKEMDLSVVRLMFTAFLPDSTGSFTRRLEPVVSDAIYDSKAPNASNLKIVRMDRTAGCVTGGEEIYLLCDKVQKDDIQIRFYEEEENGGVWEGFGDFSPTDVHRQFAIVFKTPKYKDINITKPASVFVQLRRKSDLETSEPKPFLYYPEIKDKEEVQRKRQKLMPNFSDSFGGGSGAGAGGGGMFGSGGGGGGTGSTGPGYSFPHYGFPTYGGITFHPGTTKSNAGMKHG
Description: EMSA. The conditions noted are these: p50/p50 homodimer, extract from AGS infected with H. pylori in presence of IL-22; 20 mM HEPES pH 7.9, 1 mM DTT, 2.5 mM MgCl2, 50 mM KCl, 2 µg poly dI:dC, 10 µg nuclear extract in 10 µl, room temperature 30 min; protein in an extract; label: 32P 5' end label.

The test system of data set [3] is NF-κB p50 + NF-κB p65. Description: EMSA supershift. The conditions noted are these: p50/p65 heterodimer, H. pylori-infected AGS nuclear extract, diminished by 100x cold probe; 20 mM HEPES pH 7.9, 1 mM DTT, 2.5 mM MgCl2, 50 mM KCl, 2 µg poly dI:dC, 10 µg nuclear extract in 10 µl, room temperature 30 min; protein in an extract; label: 32P 5' end label.
In data set [4] the target is T1, NF-κB p50. Description: EMSA supershift. The settings on record: p50/p50 homodimer, H. pylori-infected AGS nuclear extract, diminished by 100x cold probe; 20 mM HEPES pH 7.9, 1 mM DTT, 2.5 mM MgCl2, 50 mM KCl, 2 µg poly dI:dC, 10 µg nuclear extract in 10 µl, room temperature 30 min; protein in an extract; label: 32P 5' end label.

On to “ATCAATGGGGAAAACCCCATGTGGCAACACG (double strand) [CCL20 promoter -87 to -57 NF-κB probe]”, for which the binding result with NF-κB p50 + NF-κB p65 [1] was “binds more weakly”; with NF-κB p50 [2] it was “binds more weakly”; in the data set on NF-κB p50 + NF-κB p65 [3], “binds”; with NF-κB p50 [4], “binds”.
